Reference: US6593295 (dated 2003)

Assay: general procedure: Fmoc solid-phase peptide synthesis; Fmoc protected Rink Amide MBHA resin; HBTU with NMM activation in DMF
Settings: whole synthesis, RP-HPLC mass spectrometry, Hewlett Packard LCMS-1100 with diode array detector and electro-spray ionization, scale of the general procedure 100 μmole, 4TFA

Substance | final LC-MS purity [%]
D-Ala^8 GLP-1 (7-36)-Lys^37(ε-AEEA-AEEA-MPA)-NH2.4TFA | >95
D-Ala^8 GLP-1 (7-36)-Lys^37(ε-MPA)-NH2.4TFA | >95

One purity is given for all peptides; the source may state it once.
